The test deals with B6C3F1 mice, intracerebral ependymoblastoma, median survival T/C. Kind of test: NCI In Vivo Anticancer Drug Screen. Data for tumor model Ependymoblastoma (intracerebral) in B6C3F1 mice. Particulars: T/C endpoint: median survival time, higher T/C = longer survival. The procedure:
The antitumor activity of compounds was measured in mice bearing transplantable tumors. Survival or tumor size were measured and the results are expressed as the measurement made in the treated group (T) divided by the measurement made in the vehicle treated control group (C). The tumor model used in this assay is Ependymoblastoma (intracerebral) in B6C3F1 mice

Setting [1] is: dose: 1.0 mg/kg/injection, schedule: Q01DX005 (ip), vehicle: saline.
[2] abbreviates: dose: 2.0 mg/kg/injection, schedule: Q01DX005 (ip), vehicle: saline.
Where [3] appears, read: dose: 4.0 mg/kg/injection, schedule: Q01DX005 (ip), vehicle: saline.
Setting [4] is: dose: 16.0 mg/kg/injection, schedule: Q01DX005 (ip), vehicle: saline.
Setting [5] is: dose: 512.0 mg/kg/injection, schedule: Q01DX005 (ip), vehicle: saline.

The values that follow come from PubChem BioAssay AID226 (DTP/NCI, 2004).

The list shows only some results of the screen, not a fair sample: it is rich in T/C values a quarter to a half above the control, in often repeated tests (any T/C) and in doses without a T/C. Other doses and runs of a compound stand elsewhere. T/C gives the treated animals as a percentage of the vehicle group. Some doses have a count of surviving animals in place of a T/C: the source files T/C as zero there, which appears to mark a toxic dose or a test without result, not a measured value. Some survivor counts are full or nearly so, which does not show that the dose was tolerated: the source hardly ever lists a survival T/C far under the control, and the zero likely stands for such cases as well. Survivors were counted at the toxicity check, usually on the fifth day, unless a day is given; later deaths do not show. Schedules are NCI's codes, read here as Q, the interval in days (D) or hours (H), X, the number of doses. Some entries were tested several times; their values stand side by side, smallest first. Additions like (4×) count equal records among those shown. Some schedule codes hold Z or #, which are not explained here. Where survival is the endpoint, this PubChem deposit counts one and a half times the control or more as active, and values a quarter to a half above the control carry no call in these data; other NCI protocols may use other cut-offs. Some T/C values are followed by the survivors on the day toxicity was checked, most often the fifth; where none is given, no animal had died by that day.

For the compound `S=P(N1CC1)(N1CC1)N1CC1`, the T/C runs as follows: under setting [1], 140 % of control [9 of 10 alive]; under setting [2], 142 % of control; under setting [3], 146 % of control. Moreover, the survivor count under setting [4] is recorded as 10 of 10.

Consider `Nc1ncnc2nc[nH]c12`, for which the survivor count was 5 of 10 (dose: 512.0 mg/kg/injection, schedule: Q01DX005 (ip), vehicle: Klucel (hydroxypropylcellulose) (HPC)) and 0 of 10 (dose: 1024.0 mg/kg/injection, schedule: Q01DX005 (ip), vehicle: Klucel (hydroxypropylcellulose) (HPC)).

As to `O=P1(N(CCCl)CCCl)NC(OO)CCO1` (centres undefined), the survivor count (dose: 320.0 mg/kg/injection, schedule: Q01DX001 (ip), vehicle: saline) is listed as 1 of 10.

For the compound `CC(C)c1cc(C(=O)O)c(O)c(C(C)C)c1.CC(C)c1cc(C(=O)O)c(O)c(C(C)C)c1.[Cu]`, the survivor count is, setting by setting: (dose: 25.0 mg/kg/injection, schedule: Q01DX005 (ip), vehicle: saline with Tween-80) 9 of 10; (dose: 50.0 mg/kg/injection, schedule: Q01DX005 (ip), vehicle: saline with Tween-80) 5 of 10; (dose: 100.0 mg/kg/injection, schedule: Q01DX005 (ip), vehicle: saline with Tween-80) 0 of 10.

Turning to `O=C1C(NCCO)=C(N2CC2)C(=O)C(NCCO)=C1N1CC1`, the T/C was 133 % of control (dose: 0.5 mg/kg/injection, schedule: Q01DX005 (ip), vehicle: saline) and 142 % of control under setting [1]. Further, the survivor count reads like this: under setting [2], 10 of 10; (dose: 3.0 mg/kg/injection, schedule: Q01DX005 (ip), vehicle: saline) 10 of 10.

Regarding `CC1CN1C(=O)NCCCCCCNC(=O)N1CC1C` (centres undefined), the survivor count (dose: 20.0 mg/kg/injection, schedule: Q01DX005 (ip), vehicle: Klucel (hydroxypropylcellulose) (HPC)) is listed as 10 of 10.

With `COc1ccc2cc1Oc1ccc(cc1)C[C@H]1c3cc(c(OC)cc3CCN1C)Oc1c(OC)c(OC)cc3c1[C@H](C2)N(C)CC3`, the T/C reads like this: (dose: 100.0 mg/kg/injection, schedule: Q01DX001 (ip), vehicle: Klucel (hydroxypropylcellulose) (HPC)) 98 [survivors not given], 100, 100 [survivors not given], 105 % of control [survivors not given]; (dose: 200.0 mg/kg/injection, schedule: Q01DX001 (ip), vehicle: Klucel (hydroxypropylcellulose) (HPC)) 97 [survivors not given], 103, 105 [survivors not given], 123 % of control [survivors not given]; (dose: 400.0 mg/kg/injection, schedule: Q01DX001 (ip), vehicle: Klucel (hydroxypropylcellulose) (HPC)) 94 [survivors not given], 95 [survivors not given], 104, 114 % of control [survivors not given]; (dose: 800.0 mg/kg/injection, schedule: Q01DX001 (ip), vehicle: Klucel (hydroxypropylcellulose) (HPC)) 92 [survivors not given], 99, 103 [survivors not given], 109 % of control [survivors not given].

Consider `Cc1[nH]c(=O)[nH]c(=O)c1N(CCF)CCCl`, for which the survivor count runs as follows: (dose: 32.0 mg/kg/injection, schedule: Q01DX005 (ip), vehicle: saline with Tween-80) 9 of 10; (dose: 64.0 mg/kg/injection, schedule: Q01DX005 (ip), vehicle: Klucel (hydroxypropylcellulose) (HPC)) 1 of 10 and 10 of 10; (dose: 64.0 mg/kg/injection, schedule: Q01DX005 (ip), vehicle: saline with Tween-80) 0 of 10 and 7 of 10.

As to `OCC1OC(n2cnc3c2NC=NC[C@H]3O)CC1O` (some centres undefined), the survivor count by setting is: (dose: 0.5 mg/kg/injection, schedule: Q12HX010 (ip), vehicle: saline) 10 of 10; (dose: 0.5 mg/kg/injection, schedule: Q#ADX018 (ip), vehicle: saline) 10 of 10; (dose: 1.0 mg/kg/injection, schedule: Q01DX009 (ip), vehicle: saline) 10 of 10; (dose: 1.0 mg/kg/injection, schedule: Q12HX010 (ip), vehicle: saline) 10 of 10; (dose: 1.0 mg/kg/injection, schedule: Q#A X010 (ip), vehicle: saline) 9 of 10; (dose: 1.0 mg/kg/injection, schedule: Q#ADX018 (ip), vehicle: saline) 10 of 10. Besides, the survivor count under setting [2] is 10 of 10; the survivor count (dose: 2.0 mg/kg/injection, schedule: Q01DX009 (ip), vehicle: saline) is on record as 10 of 10; the survivor count (dose: 2.0 mg/kg/injection, schedule: Q12HX010 (ip), vehicle: saline) is 9 of 10; the survivor count (dose: 2.0 mg/kg/injection, schedule: Q#A X010 (ip), vehicle: saline) is 10 of 10; the survivor count under setting [3] is 9 of 10 (2×) and 10 of 10 (3×); the survivor count (dose: 4.0 mg/kg/injection, schedule: Q01DX009 (ip), vehicle: saline) is recorded as 10 of 10. Also, the survivor count is, setting by setting: (dose: 4.0 mg/kg/injection, schedule: Q12HX010 (ip), vehicle: saline) 7 of 10; (dose: 4.0 mg/kg/injection, schedule: Q#A X010 (ip), vehicle: saline) 8 of 10; (dose: 8.0 mg/kg/injection, schedule: Q01DX005 (ip), vehicle: saline) 9 of 10 (2×) and 10 of 10 (2×); (dose: 8.0 mg/kg/injection, schedule: Q01DX009 (ip), vehicle: saline) 10 of 10; (dose: 8.0 mg/kg/injection, schedule: Q12HX010 (ip), vehicle: saline) 7 of 10; (dose: 8.0 mg/kg/injection, schedule: Q#A X010 (ip), vehicle: saline) 5 of 10. Further, the survivor count under setting [4] was 7 of 10 and 9 of 10 (2×). Moreover, the T/C is, setting by setting: (dose: 1.0 mg/kg/injection, schedule: Q01DX005 (ip), vehicle: saline, evaluated on day 30) 106 % of control; (dose: 1.0 mg/kg/injection, schedule: Q01DX005 (ip), vehicle: saline, evaluated on day 60) 96, 103, 108 (2×), 109 % of control [9 of 10 alive]; (dose: 2.0 mg/kg/injection, schedule: Q01DX005 (ip), vehicle: saline, evaluated on day 30) 86 % of control; (dose: 2.0 mg/kg/injection, schedule: Q01DX005 (ip), vehicle: saline, evaluated on day 60) 99 [9 of 10 alive], 103, 104, 107 % of control.

As for `O=C1NC(c2ccc(Cl)cc2)(c2ccc(Cl)cc2)C(=O)N1Cl`, the survivor count was 2 of 10 (dose: 100.0 mg/kg/injection, schedule: Q01DX009 (ip), vehicle: saline with Tween-80) and 1 of 10 (dose: 200.0 mg/kg/injection, schedule: Q01DX009 (ip), vehicle: saline with Tween-80).

Regarding `CN(CCO)/N=N/c1nc[nH]c1C(N)=O`, the T/C reads like this: (dose: 128.0 mg/kg/injection, schedule: Q01DX005 (ip), vehicle: saline) 131 % of control; (dose: 256.0 mg/kg/injection, schedule: Q01DX005 (ip), vehicle: saline) 143 % of control; under setting [5], 131 % of control. In addition, under setting [5], the survivor count was 6 of 10.

With `O=C(O)CCCc1ccc(N(CCCl)CCCl)cc1`, the T/C is 128 % of control (dose: 2.0 mg/kg/injection, schedule: Q01DX005 (ip), vehicle: saline with Tween-80) and 135 % of control (dose: 4.0 mg/kg/injection, schedule: Q01DX005 (ip), vehicle: saline with Tween-80). Further, the survivor count is 10 of 10 (dose: 16.0 mg/kg/injection, schedule: Q01DX005 (ip), vehicle: Klucel (hydroxypropylcellulose) (HPC)) and 9 of 10 (dose: 32.0 mg/kg/injection, schedule: Q01DX005 (ip), vehicle: Klucel (hydroxypropylcellulose) (HPC)).

For `CCC1=C(c2ccc(OC)cc2)CCC(C(=O)O)C1C` (centres undefined), the T/C is 90 [9 of 10 alive], 95 [survivors not given], 97 [survivors not given], 100 % of control [survivors not given] (dose: 8.0 mg/kg/injection, schedule: Q01DX001 (ip), vehicle: saline); 97 [survivors not given], 99, 100 [survivors not given], 107 % of control [survivors not given] (dose: 16.0 mg/kg/injection, schedule: Q01DX001 (ip), vehicle: saline); 100, 102 [survivors not given], 103 % of control [survivors not given] (dose: 32.0 mg/kg/injection, schedule: Q01DX001 (ip), vehicle: saline); 100 [survivors not given], 101, 102 [survivors not given], 103 % of control [survivors not given] (dose: 64.0 mg/kg/injection, schedule: Q01DX001 (ip), vehicle: saline).
